Data from US20100291561.

The chains behind the UniProt entries cited, without tags or fusion partners. Residues count along the entry.
UniProt P02769, 25-607: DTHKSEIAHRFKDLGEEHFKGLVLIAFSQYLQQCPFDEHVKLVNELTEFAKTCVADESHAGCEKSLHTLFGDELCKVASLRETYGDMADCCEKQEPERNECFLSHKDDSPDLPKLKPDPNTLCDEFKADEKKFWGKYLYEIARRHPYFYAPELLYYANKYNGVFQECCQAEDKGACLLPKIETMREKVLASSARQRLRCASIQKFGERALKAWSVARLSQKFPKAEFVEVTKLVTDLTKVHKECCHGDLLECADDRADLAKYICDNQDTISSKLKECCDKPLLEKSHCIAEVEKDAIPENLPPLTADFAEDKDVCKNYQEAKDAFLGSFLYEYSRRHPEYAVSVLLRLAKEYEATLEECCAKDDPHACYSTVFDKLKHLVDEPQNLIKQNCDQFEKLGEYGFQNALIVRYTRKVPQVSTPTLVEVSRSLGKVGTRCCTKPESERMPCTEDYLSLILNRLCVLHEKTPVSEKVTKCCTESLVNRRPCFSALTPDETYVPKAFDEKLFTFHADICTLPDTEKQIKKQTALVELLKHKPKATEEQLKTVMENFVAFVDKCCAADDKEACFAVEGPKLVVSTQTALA
UniProt P04390, 2-245: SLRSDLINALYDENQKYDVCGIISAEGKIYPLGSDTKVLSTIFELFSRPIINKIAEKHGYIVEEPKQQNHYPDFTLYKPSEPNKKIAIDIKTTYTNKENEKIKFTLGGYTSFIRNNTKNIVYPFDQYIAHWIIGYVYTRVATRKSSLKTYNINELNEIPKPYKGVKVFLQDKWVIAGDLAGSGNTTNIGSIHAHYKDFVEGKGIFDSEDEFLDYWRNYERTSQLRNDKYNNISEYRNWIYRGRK

Tests used:
[1] = target: bovine serum albumin (BSA) (Bos taurus) (UniProt P02769); experiment: EMSA; conditions: selectivity control, 1x NEBuffer 1, room temperature; purified native protein; protein details: New England Biolabs; single-stranded DNA
[2] = target: EcoRV restriction endonuclease (UniProt P04390); experiment: EMSA; conditions: selectivity control, 1x NEBuffer 1, room temperature; purified recombinant protein; protein details: New England Biolabs; single-stranded DNA

“CAAGGCCTCTCCTGATCCGACGAGCAAGTAGCTCCAAGACGAGTTCAACCCCAGAATCAGGTCGGGAGCTGAAGCTGCTT [aptamer 3 (full length, asymmetric PCR product)]”: no binding [1]; no binding [2].

Construct, isoform or probe ends are uncertain for at least one entry. Negatives hold for the conditions tested.
